PubChem BioAssay AID1159584 | Peter MacCallum Cancer Centre, 2016

- Aim: 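Genes that CDH1-null MCF10A cells selectively depend on to survive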 (primary screen)
- Cell system: human MCF10A breast epithelial cells, parental and CDH1-null
- Knock-down reagent: siRNA against human genes
- Measurement: 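ATP luminescence (CellTiter-Glo) viability per line relative to mean mock wells over all plates, and the ratio of CDH1-null to parental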
- Reading the numbers: CDH1-null / parental viability ratio: higher = CDH1-null cells survive relatively better than parental; CDH1-null viability vs mock: higher = more viable CDH1-null cells
- Units: CDH1-null viability vs mock in fraction of mock
This is one part, drawn at random, of about 18,000 reagents. Not all columns of the deposit are shown. Not stated in the record: the amount of reagent, the time to read-out.

KLHL2 | CDH1-null / parental viability ratio = 1.78; CDH1-null viability vs mock = 0.89
FDPS | CDH1-null / parental viability ratio = 1.34; CDH1-null viability vs mock = 1.15
IGFBP1 | CDH1-null / parental viability ratio = 1.06; CDH1-null viability vs mock = 0.93
MYNN | CDH1-null / parental viability ratio = 1.11; CDH1-null viability vs mock = 1.04
DOC2B | CDH1-null / parental viability ratio = 1; CDH1-null viability vs mock = 0.96
CNBD1 | CDH1-null / parental viability ratio = 0.95; CDH1-null viability vs mock = 0.63
TMEM126B | CDH1-null / parental viability ratio = 1.03; CDH1-null viability vs mock = 0.97
MAP6D1 | CDH1-null / parental viability ratio = 0.89; CDH1-null viability vs mock = 0.68
CAV1 | CDH1-null / parental viability ratio = 0.93; CDH1-null viability vs mock = 1.02
CYC1 | CDH1-null / parental viability ratio = 0.99; CDH1-null viability vs mock = 0.98
NSMAF | CDH1-null / parental viability ratio = 1; CDH1-null viability vs mock = 0.96
TMT1A | CDH1-null / parental viability ratio = 0.68; CDH1-null viability vs mock = 0.42
ATP11C | CDH1-null / parental viability ratio = 1; CDH1-null viability vs mock = 0.9
TBC1D7 | CDH1-null / parental viability ratio = 1.16; CDH1-null viability vs mock = 1.11

Individual results from the entries so far:
Under “CDH1-null viability vs mock”, DOC2B has 0.96
Under “CDH1-null viability vs mock”, ATP11C has 0.9
